# Measured values from the supplement of paper PMC8728848.
# This is one part of the list.
# B1: CLEC9a (Mus musculus), Q8BRU4 (protein)
# chain: MHAEEIYTSLQWDIPTSEASQKCQSPSKCSGAWCVVTMISCVVCMGLLATSIFLGIKFFQVSSLVLEQQERLIQQDTALVNLTQWQRKYTLEYCQALLQRSLHSGSDCSPCPHNWIQNGKSCYYVFERWEMWNISKKSCLKEGASLFQIDSKEEMEFISSIGKLKGGNKYWVGVFQDGISGSWFWEDGSSPLSDLLPAERQRSAGQICGYLKDSTLISDKCDSWKYFICEKKAFGSCI
# Columns and labels:
# Test in all cases: glycan array binding signal (z-score within array); higher = stronger binding
# Settings in all cases: glycan notation: IUPAC condensed, linker removed
# [1] = molecular target: Fuc(a1-2)[Gal(a1-4)]Gal(b1-4)GlcNAc
# Method in brief: (§1)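 Glycan array binding is given as a within-array Z-score, which can be read as non-binding when negative. The arrays, 3228 of them, came from the Consortium for Functional Glycomics database and were retained only where the protein sequence was available. Z-scores were averaged across arrays of the same protein sequence at different concentrations or buffers and across linkers.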
# [2] = molecular target: Fuc(a1-2)[GalNAc(a1-3)]Gal
# Method in brief: as §1
# [3] = molecular target: Fuc(a1-2)[GalNAc(a1-3)]Gal(b1-3)GalNAc(a1-3)[Fuc(a1-2)]Gal(b1-4)GlcNAc
# Method in brief: as §1
# [4] = molecular target: Fuc(a1-2)[GalNAc(a1-3)]Gal(b1-3)GlcNAc
# Method in brief: as §1
# [5] = molecular target: Fuc(a1-2)[GalNAc(a1-3)]Gal(b1-3)GlcNAc(b1-2)Man(a1-3)[Fuc(a1-2)[GalNAc(a1-3)]Gal(b1-3)GlcNAc(b1-2)Man(a1-6)]Man(b1-4)GlcNAc(b1-4)GlcNAc
# Method in brief: as §1
# [6] = molecular target: Fuc(a1-2)[GalNAc(a1-3)]Gal(b1-4)Glc
# Method in brief: as §1
# [7] = molecular target: Fuc(a1-2)[GalNAc(a1-3)]Gal(b1-4)GlcNAc
# Method in brief: as §1
# [8] = molecular target: Fuc(a1-2)[GalNAc(a1-3)]Gal(b1-4)GlcNAc(b1-2)Man(a1-3)[Fuc(a1-2)[GalNAc(a1-3)]Gal(b1-4)GlcNAc(b1-2)Man(a1-6)]Man(b1-4)GlcNAc(b1-4)GlcNAc
# Method in brief: as §1
# [9] = molecular target: Fuc(a1-2)[GalNAc(a1-3)]Gal(b1-4)GlcNAc(b1-3)Gal(b1-4)GlcNAc
# Method in brief: as §1
# [10] = molecular target: Fuc(a1-2)[GalNAc(a1-3)]Gal(b1-4)GlcNAc(b1-3)Gal(b1-4)GlcNAc(b1-3)Gal(b1-4)GlcNAc
# Method in brief: as §1
# [11] = molecular target: Fuc(a1-2)[GalNAc(a1-3)]Gal(b1-4)[Fuc(a1-3)]GlcNAc
# Method in brief: as §1
# [12] = molecular target: Fuc(a1-2)[GalNAc(a1-4)]Gal(b1-4)GlcNAc
# Method in brief: as §1
# [13] = molecular target: Fuc(a1-2)[GalNAc(b1-3)]Gal
# Method in brief: as §1
# Fuc(a1-3)GlcNAc = molecular target: Fuc(a1-3)GlcNAc
# Method in brief: as §1
# [14] = molecular target: Fuc(a1-3)[Gal(b1-4)]Glc6S
# Method in brief: as §1
# [15] = molecular target: Fuc(a1-3)[Gal(b1-4)]GlcNAc
# Method in brief: as §1
# [16] = molecular target: Fuc(a1-3)[Gal(b1-4)]GlcNAc(b1-2)Man(a1-3)[Fuc(a1-3)[Gal(b1-4)]GlcNAc(b1-2)Man(a1-6)]Man(b1-4)GlcNAc(b1-4)GlcNAc
# Method in brief: as §1
# [17] = molecular target: Fuc(a1-3)[Gal(b1-4)]GlcNAc(b1-3)Gal(b1-3)[Fuc(a1-4)]GlcNAc
# Method in brief: as §1
# [18] = molecular target: Fuc(a1-3)[Gal(b1-4)]GlcNAc(b1-3)GalNAc
# Method in brief: as §1
# [19] = molecular target: Fuc(a1-3)[Gal(b1-4)]GlcNAc(b1-4)Gal(b1-4)[Fuc(a1-3)]GlcNAc
# Method in brief: as §1
# [20] = molecular target: Fuc(a1-3)[Gal(b1-4)]GlcNAc(b1-4)Gal(b1-4)[Fuc(a1-3)]GlcNAc(b1-4)Gal(b1-4)[Fuc(a1-3)]GlcNAc
# Method in brief: as §1
# [21] = molecular target: Fuc(a1-3)[Gal(b1-4)]GlcNAc(b1-6)[Gal(b1-3)GlcNAc(b1-3)]Gal(b1-4)Glc
# Method in brief: as §1
# [22] = molecular target: Fuc(a1-3)[Gal(b1-4)]GlcNAc6S
# Method in brief: as §1
# [23] = molecular target: Fuc(a1-3)[Gal3S(b1-4)]GlcNAc
# Method in brief: as §1
# [24] = molecular target: Fuc(a1-3)[Gal3S(b1-4)]GlcNAc6S
# Method in brief: as §1
# [25] = molecular target: Fuc(a1-3)[GalNAc(b1-4)]GlcNAc
# Method in brief: as §1
# Fuc(a1-4)GlcNAc = molecular target: Fuc(a1-4)GlcNAc
# Method in brief: as §1
# Fuc(b1-3)GlcNAc = molecular target: Fuc(b1-3)GlcNAc
# Method in brief: as §1
# Gal(a1-2)Gal = molecular target: Gal(a1-2)Gal
# Method in brief: as §1
# Gal(a1-3)Gal = molecular target: Gal(a1-3)Gal
# Method in brief: as §1
# Gal(a1-3)Gal(b1-3)GlcNAc = molecular target: Gal(a1-3)Gal(b1-3)GlcNAc
# Method in brief: as §1
# [26] = molecular target: Gal(a1-3)Gal(b1-3)GlcNAc(b1-2)Man(a1-3)[Gal(a1-3)Gal(b1-3)GlcNAc(b1-2)Man(a1-6)]Man(b1-4)GlcNAc(b1-4)GlcNAc
# Method in brief: as §1
# [27] = molecular target: Gal(a1-3)Gal(b1-3)[Fuc(a1-4)]GlcNAc(b1-2)Man(a1-3)[Gal(a1-3)Gal(b1-3)[Fuc(a1-4)]GlcNAc(b1-2)Man(a1-6)]Man(b1-4)GlcNAc(b1-4)GlcNAc
# Method in brief: as §1
# Gal(a1-3)Gal(b1-4)Glc = molecular target: Gal(a1-3)Gal(b1-4)Glc
# Method in brief: as §1
# Gal(a1-3)Gal(b1-4)GlcNAc = molecular target: Gal(a1-3)Gal(b1-4)GlcNAc
# Method in brief: as §1
# [28] = molecular target: Gal(a1-3)Gal(b1-4)GlcNAc(b1-3)GalNAc
# Method in brief: as §1
# [29] = molecular target: Gal(a1-3)Gal(b1-4)[Fuc(a1-3)]GlcNAc
# Method in brief: as §1
# [30] = molecular target: Gal(a1-3)Gal(b1-4)[Fuc(a1-3)]GlcNAc(b1-2)Man(a1-3)[Gal(a1-3)Gal(b1-4)[Fuc(a1-3)]GlcNAc(b1-2)Man(a1-6)]Man(b1-4)GlcNAc(b1-4)GlcNAc
# Method in brief: as §1
binder,measurement,setting,value
B1,glycan array binding signal (z-score),[1],0.057
same,glycan array binding signal (z-score),[2],0.956
same,glycan array binding signal (z-score),[3],0.06
same,glycan array binding signal (z-score),[4],0.627
same,glycan array binding signal (z-score),[5],0.379
same,glycan array binding signal (z-score),[6],0.468
same,glycan array binding signal (z-score),[7],0.134
same,glycan array binding signal (z-score),[8],-0.982
same,glycan array binding signal (z-score),[9],-0.874
same,glycan array binding signal (z-score),[10],-0.724
same,glycan array binding signal (z-score),[11],-1.38
same,glycan array binding signal (z-score),[12],1.48
same,glycan array binding signal (z-score),[13],-0.241
same,glycan array binding signal (z-score),Fuc(a1-3)GlcNAc,-0.051
same,glycan array binding signal (z-score),[14],0.238
same,glycan array binding signal (z-score),[15],0.79
same,glycan array binding signal (z-score),[16],1.74
same,glycan array binding signal (z-score),[17],0.143
same,glycan array binding signal (z-score),[18],0.322
same,glycan array binding signal (z-score),[19],1.06
same,glycan array binding signal (z-score),[20],-0.403
same,glycan array binding signal (z-score),[21],-0.886
same,glycan array binding signal (z-score),[22],-0.966
same,glycan array binding signal (z-score),[23],0.043
same,glycan array binding signal (z-score),[24],-0.039
same,glycan array binding signal (z-score),[25],-0.016
same,glycan array binding signal (z-score),Fuc(a1-4)GlcNAc,0.63
same,glycan array binding signal (z-score),Fuc(b1-3)GlcNAc,-0.568
same,glycan array binding signal (z-score),Gal(a1-2)Gal,0.171
same,glycan array binding signal (z-score),Gal(a1-3)Gal,1.37
same,glycan array binding signal (z-score),Gal(a1-3)Gal(b1-3)GlcNAc,0.766
same,glycan array binding signal (z-score),[26],0.323
same,glycan array binding signal (z-score),[27],1.38
same,glycan array binding signal (z-score),Gal(a1-3)Gal(b1-4)Glc,0.156
same,glycan array binding signal (z-score),Gal(a1-3)Gal(b1-4)GlcNAc,1.47
same,glycan array binding signal (z-score),[28],-0.478
same,glycan array binding signal (z-score),[29],0.082
same,glycan array binding signal (z-score),[30],0.312

# For reference, part of the list above:
binder,measurement,setting,value
B1,glycan array binding signal (z-score),[24],-0.039
same,glycan array binding signal (z-score),[25],-0.016
